# Measurements reported in PubChem BioAssay AID2685 (National Center for Advancing Translational Sciences (NCATS), 2010).
# This is one part of the list. These are further read-outs of the screen, such as a control signal, another cell line or another target. No call is given for them. Compounds called inactive in the main read-out are mostly missing here. Words in brackets tell the shape of the fitted curve; partial curves, single points and poor fits give uncertain potencies.
# Test: qHTS Assay for Lipid Storage Modulators in Drosophila S3 Cells;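 for cell number change: cells counted by Cell Tracker Red CMTPX staining in the red channel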
# Settings: BODIPY lipid droplet fluorescence, 18-24 h; for cell number change: measured here: cell count max response, cells fed with added oleic acid
# In short: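 Drosophila S3 cells loaded with oleic acid (400 uM, as added) and compounds at several concentrations; lipid droplets imaged by 488-nm laser-scanning cytometry, 500–530 nm intensity and object ratio to cell channel. Percent activity normalized to 20 uM Triacsin C.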
# [1] = measured here: cell number channel AC50, cells fed with added oleic acid
# [2] = measured here: lipid fluorescence (Fed channel) AC50, cells fed with added oleic acid
SMILES,cell number change,AC50 [1],AC50 [2]
O=C(CN1C(=O)COc2ccccc21)NCc1ccc(C(=O)O)cc1,-62.7%,"4.61 µM [falling, full curve]","23.1 µM [falling, single point]"
CCOC(=O)Cn1c(C)nc2ccccc21,-10.9%,"0.13 µM [falling, full curve, poor fit]",–
CCN1C(=O)C(=Cc2cccc(OC)c2Oc2ccc([N+](=O)[O-])cc2[N+](=O)[O-])SC1=S,4.13%,–,"4.11 µM [falling, single point]"
c1ccc(-c2nc3cc4ccccc4cc3[nH]2)nc1,118%,"1.64 µM [rising, full curve]","2.31 µM [rising, full curve]"
COc1cc(/C=C/C(=O)c2ccc(F)cc2)cc(OC)c1OC,-16.6%,–,"18.4 µM [falling, single point]"
COc1cccc(C(=O)NCCSCc2c(F)cccc2Cl)c1,2.55%,–,–
O=C(CSc1nncs1)NC1CCCc2ccccc21 (stereo unspecified),-49.8%,–,"32.6 µM [falling, partial curve, poor fit]"
Cc1nc2nc(-c3ccccc3)cn2nc1C,11.9%,–,"29.1 µM [falling, single point]"
CCOc1ccc(S(=O)(=O)N(CC(=O)O)c2ccc(C)cc2)cc1,-161%,–,–
COc1ccc(C(=O)CCC(=O)N2CCN(c3ccc([N+](=O)[O-])cc3)CC2)cc1,5.07%,–,–
COc1cc(-c2nnn(CC(=O)NC3CCS(=O)(=O)C3)n2)ccc1OCc1ccccc1 (stereo unspecified),42%,"29.1 µM [rising, single point]",–
O=C(O)CCOc1ccc2c(c1)OCCO2,7.35%,–,"0.00517 µM [falling, full curve, poor fit]"
Brc1ccc(OCCCOc2cccc3cccnc23)cc1,-8.03%,–,"0.184 µM [rising, full curve]"
CCN(CC)S(=O)(=O)c1cc(NC(=O)CCNC(=O)c2ccco2)ccc1C,4.03%,–,–
CN=c1scc(-c2ccc(Br)cc2)n1C,-24.4%,"0.651 µM [falling, full curve, poor fit]",–
CNC(=S)N1CCC(NC(=O)C23CC4CC(CC(C4)C2)C3)CC1,5.03%,–,"1.46 µM [falling, partial curve, poor fit]"
CC1CCN(C(=O)CSc2ccc(-c3ccccc3)nn2)CC1,30.9%,"0.92 µM [rising, partial curve, poor fit]",–
COc1ccc(S(=O)(=O)n2nc(C)cc2C)cc1OC,-4.56%,–,"29.1 µM [rising, single point]"
Nc1ccccc1Sc1nc2ccccc2[nH]1,-30%,–,"29.1 µM [falling, single point]"

# Another view of 2 compounds above.
SMILES | cell number change | AC50 [1] | AC50 [2]
c1ccc(-c2nc3cc4ccccc4cc3[nH]2)nc1 | 118% | 1.64 µM [rising, full curve] | 2.31 µM [rising, full curve]
COc1cc(/C=C/C(=O)c2ccc(F)cc2)cc(OC)c1OC | -16.6% | – | 18.4 µM [falling, single point]
